Reference: patent US8470344B2, “Aqueous dispersions and solutions of difficult to dissolve materials and methods of their preparation” (Teva Pharmaceutical Industries Ltd., priority 2005, dated 2013)
At least one structure is not confirmed: it was looked up by name or label, or the drawing left a doubt.

Assay: Dissolving or dispersing the compound-covered substrate matrix (dry powder) in water
Type: physicochemical
Conditions: Example 5: acetonitrile solution dried on NaH2PO4*H2O, 20 mL water, stirred
Experimental: 1 mL of the Latanoprost solution (6.4 mg/mL) in ethanol was added to a mixture of NaH2PO4*H2O (0.553 g) and Na2HPO4 (0.564 g). The resulting mixture was dried under reduced pressure at room temperature to yield dry powder particles having latanoprost on the surface thereof. The dry powder was dissolved in water (120 mL) to form a solution. Benzalkonium chloride was added to the solution.
Latanoprost (17.97 mg) was dissolved in acetonitrile (5 mL). 1.5 mL of this solution were added to mixture of NaH2PO4 (0.464 g) and Na2HPO4 (0.469 g). The resulting mixture was dried under reduced pressure to obtain a dry powder. 50 mL of water were added to dry powder and stirred during 5 minutes. A fine suspension of Latanoprost with concentration about 0.01% (w/v) was obtained. 50 mL of water, containing Benzalkonium chloride and sodium chloride, were added to this suspension and stirred. The obtained clear solution of Latanoprost had concentration 0.005% (w/v).
Dexamethasone (104.05 mg) was dissolved in acetonitrile (5 mL). 1 mL of this solution was added to 545 mg of NaH2PO4*H2O and the mixture was dried in a reduced pressure for 15 hours. 20 mL of water were added and mixture was stirred. A fine suspension of dexamethasone (concentration about 0.1% w/v) was obtained.

## C[C@@H]1C[C@H]2[C@@H]3CCC4=CC(=O)C=C[C@]4(C)[C@@]3(F)[C@@H](O)C[C@]2(C)[C@@]1(O)C(=O)CO [dexamethasone]
  concentration of fine suspension of dexamethasone: about 0.1 % w/v
